# The other results are listed elsewhere or left out. The main result of the screen is listed elsewhere. These columns were measured beside it and carry no call. The list favours compounds with an active or inconclusive main result. The note in brackets gives the kind of curve behind each potency; many fits are weak.
# Test: IkB Signaling
# Conditions: ABC-DLBCL IkBa-CBG/CBR dual luciferase ratio (green luciferase fused to IkBa over red control in OCI-Ly3 lymphoma cells), 4 h
# Procedure, shortened: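 Curves were fitted separately to fusion (green), unfused (red) and ratio luminescence, then classed by r2, magnitude and activity. Cells: OCI-Ly3, 4 h compound plus doxycycline at 37C; 10 uM MG-132 defined full response.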
# [1] = measured here: control luc red channel unless noted
smiles,measurement,setting,value
CCOc1ccc(CCNC(=O)c2cn(CC)c3ccc(S(=O)(=O)N4CCc5ccccc5C4)cc3c2=O)cc1OCC,AC50,[1],"3.16 µM [rising, partial curve, poor fit]"
CCn1c2ccccc2c2cc(CN3CCN(Cc4ccccc4F)CC3)ccc21,AC50,[1],"15.8 µM [falling, partial curve]"
COc1ccc(-c2cc(C(F)(F)F)nc(S(=O)(=O)CCCC(=O)Nc3cccc(O)c3)n2)cc1OC,AC50,[1],"5.01 µM [falling, full curve]"
CCc1ccc(NCc2cc3cc4c(cc3n(CC(=O)Nc3ccc(C)cc3)c2=O)OCO4)cc1,AC50,[1],"10 µM [falling, partial curve]"
CC(=O)c1ccc(NC(=O)CSc2nnc3ccc(-c4ccc(Cl)cc4)nn23)cc1,AC50,[1],"3.16 µM [rising, partial curve]"
CCOc1ccc(NC(=O)C2CCCN(S(=O)(=O)c3cccc4nonc34)C2)cc1 (stereo not given),AC50,[1],"2.51 µM [falling, partial curve, poor fit]"
Cc1ccc(Nc2c(-c3cccs3)nc3nc(C)cc(C)n23)cc1,AC50,[1],"15.8 µM [falling, partial curve]"
Cc1oc2ncnc(N3CCCCC3)c2c1C(=O)N1CCN(c2cccc(C(F)(F)F)c2)CC1,AC50,[1],"25.1 µM [falling, partial curve]"
Cc1ccc(-n2ncc(C(=O)NCc3ccccc3C)c2-n2cccc2)cc1,AC50,[1],"12.6 µM [falling, partial curve]"
O=C(NCc1ccc2c(c1)CCN2C(=O)c1ccc(F)cc1)c1cc2ccccc2[nH]1,AC50,[1],"39.8 µM [falling, partial curve, poor fit]"
COc1ccccc1CNC(=O)CCC(=O)N1CC2CCCN2c2ccccc21 (stereo not given),AC50,[1],"10 µM [falling, partial curve]"
COc1ccc(-c2[nH]c3ccccc3c2SCCNC(=O)c2cc(OC)c(OC)c(OC)c2)cc1,AC50,[1],"7.94 µM [falling, partial curve]"
O=C(CSc1nnc(COc2ccccc2Cl)o1)NC(=O)NC1CCCC1,AC50,[1],"31.6 µM [falling, partial curve]"
Cc1nc(NC(=O)CN2CCOCC2)sc1-c1ccccc1,AC50,[1],"39.8 µM [falling, single point]"
COc1ccc(-c2nc(CSCC(=O)NCc3ccc4c(c3)OCO4)c(C)o2)cc1OC,AC50,[1],"15.8 µM [falling, partial curve]"
c1ccc(CNc2nc3c(-c4ccccc4)nnn3c3ccccc23)cc1,AC50,[1],"0.1 µM [falling, full curve]"
Cc1ccc(-n2c(SCC(=O)Nc3ccc4c(c3)OCO4)nnc2-c2ccoc2C)cc1,AC50,[1],"20 µM [falling, partial curve]"
COc1ccc(SCc2cc(=O)c3cc(Cl)ccc3[nH]2)cc1,AC50,[1],"15.8 µM [rising, single point]"
O=C(Cc1ccc(Cl)cc1)Nc1ccc2nn(-c3ccc(Cl)cc3)nc2c1,AC50,[1],"0.398 µM [falling, full curve]"
O=C(O)c1cc(-n2c(/C=C\c3ccc(F)cc3)nc3ccccc3c2=O)ccc1Cl,AC50,[1],"20 µM [falling, partial curve]"
O=C(NCc1ccc(Cl)cc1)c1cnc(N2CCCCC2)c2ccccc12,AC50,[1],"15.8 µM [falling, partial curve]"
COc1ccc(CNC(=O)C2CCN(Cc3nc(-c4ccc(Cl)cc4)oc3C)CC2)cc1,AC50,[1],"12.6 µM [falling, partial curve]"
Cn1nnnc1Sc1ncnc2scc(-c3ccc(F)cc3)c12,AC50,[1],"39.8 µM [falling, single point]"
Cc1c(S(=O)(=O)c2cccc(Cl)c2)nnn1-c1cccc(C(F)(F)F)c1,AC50,[1],"6.31 µM [falling, partial curve]"
COc1cc(C(=O)Nc2ccc3nc(SCc4ccc(C)cc4)sc3c2)cc(OC)c1OC,AC50,[1],"5.01 µM [falling, partial curve]"
CN(C)CC(C(=O)c1ccccc1)c1ccccc1 (stereo not given),AC50,measured here: IkB-luc green channel,"6.31 µM [rising, single point]"
same,AC50,measured here: control luc red channel,"3.98 µM [falling, partial curve]"
CCOc1ccc(-n2c(SCC(=O)N3CCOCC3)nc3c([nH]c4ccccc43)c2=O)cc1,AC50,[1],"1 µM [rising, full curve, poor fit]"
Cc1ccc(Cl)cc1-n1ncc2c(NC3CCCCCC3)ncnc21,AC50,[1],"3.98 µM [falling, partial curve]"
Cc1ccc(-n2nc(C(=O)N3CCC(C)CC3)c(=O)n(C)c2=O)cc1,AC50,[1],"2 µM [falling, partial curve]"
Fc1ccc(-c2nnc(-c3ccc(Cl)cc3Cl)o2)cc1,AC50,[1],"2 µM [falling, full curve, poor fit]"
Cc1ccc(Nc2c(-c3c[nH]c4ccccc34)nc3cc(C)ccn23)cc1,AC50,[1],"0.00794 µM [falling, full curve]"
COc1cc(OC)c(OC)cc1/C=C/c1nc2cc3ccccc3cc2c(=O)n1-c1ccc(Cl)cc1,AC50,[1],"2.51 µM [falling, full curve]"
CC(C)OCCCNC(=O)c1ccc2c(c1)N(Cc1c(F)cccc1Cl)C(=O)c1ccccc1S2,AC50,[1],"3.98 µM [falling, partial curve]"
COc1ccc(-c2nn3c(=O)cc(CN4CCN(C(=O)c5ccc(C(C)(C)C)cc5)CC4)nc3s2)cc1,AC50,[1],"31.6 µM [falling, single point]"
COc1ccc(C(=O)NCC(c2cccnc2)N2CCc3ccccc32)cc1 (stereo not given),AC50,[1],"25.1 µM [falling, single point]"
O=C(CCC1N=C2c3ccccc3N=C(SCc3ccc(F)cc3)N2C1=O)NCc1cccs1 (stereo not given),AC50,[1],"5.01 µM [falling, partial curve]"
CCOC(=O)C1=C(CS(=O)(=O)c2cccc(C(F)(F)F)c2)NC(=O)NC1c1cccc(OC)c1 (stereo not given),AC50,[1],"0.2 µM [falling, full curve, poor fit]"
CCC(C(=O)Nc1cc(Cl)ccc1OC)n1nc(-c2ccccc2)ccc1=O (stereo not given),AC50,[1],"25.1 µM [falling, single point]"
CCCCN(C)CCCNC(=O)C1CCN(c2nc3ccc(CC)cc3s2)CC1,AC50,[1],"2 µM [falling, full curve, poor fit]"

# Exported with bars between the fields: part of the list above.
smiles | measurement | setting | value
Cc1ccc(Nc2c(-c3cccs3)nc3nc(C)cc(C)n23)cc1 | AC50 | [1] | 15.8 µM [falling, partial curve]
Cc1oc2ncnc(N3CCCCC3)c2c1C(=O)N1CCN(c2cccc(C(F)(F)F)c2)CC1 | AC50 | [1] | 25.1 µM [falling, partial curve]

# From PubChem BioAssay AID445 (National Center for Advancing Translational Sciences (NCATS), 2006)
